PMC11789017, “Preventing inappropriate signals pre- and post-ligand perception by a toggle switch mechanism of ERECTA” (Proceedings of the National Academy of Sciences of the …, 2025)
Residue numbers refer to the chain shown, from its start. Results are given in words; binding and its absence hold for the method and conditions named. Binding seen in cells or lysates may run through a third protein. Some results given as binding are weak or reduced against the parent protein; the word gives no strength. Tags and fused reporters may be left off the sequences shown. One block for each binder: values may come before it.

Assays:
[1] = molecular target: T1, ER-FLAG (Arabidopsis protoplasts) (Arabidopsis) (UniProt Q42371); test: co-IP; Arabidopsis protoplasts cotransfected with PUB30-MYC or PUB31-MYC and FLAG-tagged ER variants; 5 micromolar EPFL6 for 1 h; anti-FLAG beads, blots with anti-FLAG and anti-MYC
T1 sequence: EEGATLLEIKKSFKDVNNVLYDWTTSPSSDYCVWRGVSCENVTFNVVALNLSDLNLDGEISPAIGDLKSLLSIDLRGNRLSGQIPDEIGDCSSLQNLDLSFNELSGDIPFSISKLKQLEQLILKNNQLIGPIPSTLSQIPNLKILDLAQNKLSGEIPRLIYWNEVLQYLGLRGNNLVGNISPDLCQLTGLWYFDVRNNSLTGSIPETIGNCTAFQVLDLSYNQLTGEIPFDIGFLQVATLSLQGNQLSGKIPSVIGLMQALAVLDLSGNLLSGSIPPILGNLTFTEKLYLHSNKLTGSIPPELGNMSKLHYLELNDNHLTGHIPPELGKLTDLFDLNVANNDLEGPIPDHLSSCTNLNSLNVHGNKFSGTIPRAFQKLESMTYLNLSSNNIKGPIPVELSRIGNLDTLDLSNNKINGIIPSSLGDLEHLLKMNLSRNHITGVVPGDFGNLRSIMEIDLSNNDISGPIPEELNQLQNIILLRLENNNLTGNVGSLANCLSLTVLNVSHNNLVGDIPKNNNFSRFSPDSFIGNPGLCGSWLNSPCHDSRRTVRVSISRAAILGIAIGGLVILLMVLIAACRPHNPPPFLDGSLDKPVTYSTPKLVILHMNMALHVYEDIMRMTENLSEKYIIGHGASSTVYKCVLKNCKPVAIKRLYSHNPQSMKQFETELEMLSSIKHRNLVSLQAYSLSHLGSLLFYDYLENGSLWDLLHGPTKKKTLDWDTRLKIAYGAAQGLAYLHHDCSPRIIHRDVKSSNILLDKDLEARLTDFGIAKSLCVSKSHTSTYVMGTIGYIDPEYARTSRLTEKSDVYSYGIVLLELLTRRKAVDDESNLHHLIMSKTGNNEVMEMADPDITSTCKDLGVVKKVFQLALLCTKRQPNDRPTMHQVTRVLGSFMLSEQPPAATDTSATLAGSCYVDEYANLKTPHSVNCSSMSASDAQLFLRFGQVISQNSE

[2] = molecular target: T2, ER_(T/S8A)-FLAG, phosphonull version (Arabidopsis protoplasts) (Arabidopsis) (UniProt Q42371); test: as above
T2 sequence: T1 sequence with T923A, S926A, S930A, S931A, S933A, S935A, S948A, S951A

[3] = molecular target: T3, ER_(T/S8E)-FLAG, phosphomimetic version (Arabidopsis protoplasts) (Arabidopsis) (UniProt Q42371); test: as above
T3 sequence: T1 sequence with T923E, S926E, S930E, S931E, S933E, S935E, S948E, S951E

[4] = molecular target: T4, PUB30-YFP (PUB30pro::PUB30-YFP, transgenic Arabidopsis) (UniProt Q058P4); test: co-IP; transgenic Arabidopsis plants carrying PUB30pro::PUB30-YFP and FLAG-tagged ER variants; anti-GFP beads, blots with anti-GFP and anti-FLAG
T4 sequence: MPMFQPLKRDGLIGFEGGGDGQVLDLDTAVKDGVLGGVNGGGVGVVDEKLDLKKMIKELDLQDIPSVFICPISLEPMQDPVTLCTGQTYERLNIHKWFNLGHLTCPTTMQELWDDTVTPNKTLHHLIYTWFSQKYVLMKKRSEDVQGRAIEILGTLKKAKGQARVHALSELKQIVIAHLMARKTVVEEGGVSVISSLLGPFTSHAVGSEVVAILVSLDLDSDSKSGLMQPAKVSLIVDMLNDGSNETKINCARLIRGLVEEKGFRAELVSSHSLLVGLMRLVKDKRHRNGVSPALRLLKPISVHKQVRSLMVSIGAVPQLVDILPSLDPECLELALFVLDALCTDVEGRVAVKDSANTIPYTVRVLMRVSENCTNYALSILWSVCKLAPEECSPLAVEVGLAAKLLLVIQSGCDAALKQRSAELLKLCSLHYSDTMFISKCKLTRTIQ

[5] = molecular target: T5, ER-FLAG (ERpro::ER-FLAG, transgenic Arabidopsis) (Arabidopsis) (UniProt Q42371); test: co-IP; double transgenic Arabidopsis plants carrying ERpro::BKI1-YFP and FLAG-tagged ER variants; anti-FLAG beads, blots with anti-FLAG and anti-GFP; seedlings also treated with MEPF2 peptide (association decreased)
T5 sequence: T1 sequence

[6] = molecular target: T6, ER_(T/S8A)-FLAG, phosphonull version (transgenic Arabidopsis) (Arabidopsis) (UniProt Q42371); test: as above
T6 sequence: T1 sequence with T923A, S926A, S930A, S931A, S933A, S935A, S948A, S951A

binding [4]: binds
B2: ER-FLAG (ERpro::ER-FLAG, transgenic Arabidopsis) (receptor, UniProt Q42371 25-976)
chain: T1 sequence

binding [5]: binds
binding [6]: binds
B4: GST-BKI1 (BRI1 KINASE INHIBITOR 1) (natural protein, UniProt Q9FMZ0 1-337, looked up)
chain: METNLQQVKNSSQTFSEKQNPKQEASPSPISSTCSSPSHDFSFTISLQPLSSSSKHISPTLRSPSKTTSSYQQTDPFAVDLSPADEIFFHGHLLPLHLLSHLPVSPRTSTGSYNDGFTLPVKDILPDQPTNNNNNTENAITNISTEAKDDNTEDKAEGEIRVKTKPIKSFSLFGLSKWRKGFESNEREQEQQQQKIKKPMSLDLSHAVKKYIRMLFQKRGNGTQFWNRRQTSSYSFSSSLMGPNGNSKTMINGSYNKRDLIRGRRGELFSAPASMRTSPTNSGHLRVSTAGLSSSSGSTSSSSSDSTMEELQAAIQAAIAHCKNSSAVDRDDKVKDS
notes: Tag end from the order of the printed name; source: recombinantly purified; not shown: GST, N-terminal, kept

More lines, now with the values behind:

B1: GST-PUB30 (U-box E3 ligase PUB30) (enzyme)
chain: T4 sequence
binding [1]: binds
binding [2]: binds weakly
binding [3]: binds

B3: PUB31-MYC (Arabidopsis protoplasts) (enzyme, UniProt Q9FHN9 1-444)
chain: MPMFQPSKNGGFDGHILDLHSAVKDGVLGGGDGKFLVVVTDEKKKLDLKEMISELELPEIPSVFICPISLEPMQDPVTLCTGQTYERSNILKWFNIGHCTCPTTMQELWDDLVTPNKTLHQLIYTWFSQKYVLMKKRSEDVQGRAIEILGTLRKAKGKAKVHALSELKQVVMAHAIAKKTVVDEGGVFVISSLLSPFTSHAVGSEAIAILVNLELDSDSKAGLMQPARVSLMVDMLNDGSIETKINCARLIGRLVEEKGFRAELVSSHSLLVGLMRLVKDRRRRNGVSPALTLLKSVSVHKQVRNLLVRIGAVPQLVDVLPCLDVECLESALFVLDSLCLESEGRIALKDSVNTIPHTVRLLMKVSEKCTNYAISILWSVCKLASEECSSLAVEVGLAAKLLLVIQSGCDPALKQRSAELLKLCSLHYSDSMFISKCKLTRTIQ
binding [1]: binds
binding [2]: binds weakly
binding [3]: binds
